Results on 23 sequences are retold here after publication PMC7819943, “Rice protein-binding microarrays: a tool to detect cis-acting elements near promoter regions in rice”.

The other results are listed elsewhere or left out.

The experiment addresses T1, OsSMF1 (Oryza sativa, UniProt Q6ZLB0 1-436).
T1 sequence: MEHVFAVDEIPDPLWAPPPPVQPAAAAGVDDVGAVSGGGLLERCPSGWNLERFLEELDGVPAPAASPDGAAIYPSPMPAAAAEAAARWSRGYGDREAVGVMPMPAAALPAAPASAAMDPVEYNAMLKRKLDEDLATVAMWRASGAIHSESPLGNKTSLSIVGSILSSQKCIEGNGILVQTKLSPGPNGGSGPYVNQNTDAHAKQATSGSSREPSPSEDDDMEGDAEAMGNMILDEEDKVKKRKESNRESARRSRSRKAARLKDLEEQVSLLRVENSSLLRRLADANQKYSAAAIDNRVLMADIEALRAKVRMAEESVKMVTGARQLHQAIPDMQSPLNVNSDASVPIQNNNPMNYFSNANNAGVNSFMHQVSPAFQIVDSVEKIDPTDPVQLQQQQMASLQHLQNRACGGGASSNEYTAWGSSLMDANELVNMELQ
The experiment can be described thus: protein-binding microarray (RPBM); PBS, 2% BSA, 51.3 ng/ul salmon testes DNA, 50 uM zinc acetate, 200 nM TF, 25 C, 1 h; high values mean tight binding. To be noted: protein: recombinant; tags: N-terminal polyhistidine and DsRed monomer fusion (pET32a); chain copies: 2; label: CyDye5-dUTP incorporated in the synthesized complementary strand; 3' TTTTT single-stranded linker to array surface; dsDNA, one strand shown. A digest of the protocol:
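Polyhistidine-tagged DsRed fusions of transcription factors, joined at the N-terminus, were expressed in E. coli BL21-CodonPlus and isolated on Ni–NTA. They were incubated at 200 nM for 1 h at 25 °C on a custom Agilent array, double-stranded and BSA-blocked, in PBS with 2% BSA, salmon testes DNA and 50 µM zinc acetate. The binding signal is per-feature fluorescence intensity (arbitrary units) read on an Axon 4000B scanner after washing.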
As for “TCAGCTGGCATGCATGGCAACATATATATGGCTGGAAGTACGGAGTCACCTAGTGCAG”, the binding signal is 40000 fluorescence intensity (a.u.).
In the case of “TATGTCATCTATTAAAATAGGCGTAACTTTCTCATACGGACGGAGTCACCTAGTGCAG”, the binding signal was 31300 fluorescence intensity (a.u.).
Turning to “CCTTGGCACAGCCACGTGAGCATGTCTAGGTGGACATGTGCGGAGTCACCTAGTGCAG”, the binding signal was 9990 fluorescence intensity (a.u.).
“GTGGGTATGGGTAAGATTCGGTGAGGGCTGGGCTACCATGCGGAGTCACCTAGTGCAG”: the binding signal was 4580 fluorescence intensity (a.u.).
Then “GTCGTCCGTCCTCGCTCCATTCGCTGTTGGGGCGCGCCAACGGAGTCACCTAGTGCAG”, with 3440 fluorescence intensity (a.u.); and “GGCCGCCGTGCTCTGGGTGGCCGCCGTCACCGTGCTCTTCCGGAGTCACCTAGTGCAG”, with 3140 fluorescence intensity (a.u.); and “TTCGTCCTCCTCGTACATCACGTTGTGACAGCGCATTTGCCGGAGTCACCTAGTGCAG”, with 5910 fluorescence intensity (a.u.).
Turning to “ATCGATCGTCCCTGAATTCAAACAGTACTTACATTATATACGGAGTCACCTAGTGCAG”, the binding signal was 15300 fluorescence intensity (a.u.).
For the sequence “AGTTAGCGCCTGACGGTGATGCTGATGCGACGTACTCTCCCGGAGTCACCTAGTGCAG”, the binding signal was 4850 fluorescence intensity (a.u.).
On to “GGGCCCAACCGCCTCGGTGCGCCTCGCCTCCGCGCACCTGCGGAGTCACCTAGTGCAG”, for which the binding signal is 3350 fluorescence intensity (a.u.).
For “TCCTTCTTCAGCCCCGGCACGTCCGCCTTGAACACGTGCGCGGAGTCACCTAGTGCAG”, the binding signal is 3570 fluorescence intensity (a.u.).
As to “TATCAGTATGTATTGGAACAGGTGACACACTCCAACTCCACGGAGTCACCTAGTGCAG”, the binding signal was 3460 fluorescence intensity (a.u.).
“TTCGTCTGGCGACCGCGACTCCATCTTGACCCTTCCGGCCCGGAGTCACCTAGTGCAG”: the binding signal is 3370 fluorescence intensity (a.u.).
As to “AACCACACTCACACGTGTCAGCCTGTCATCTACACATTTTCGGAGTCACCTAGTGCAG”, the binding signal is 16000 fluorescence intensity (a.u.).
For the sequence “CAATGACAACGATGCTGTCGCGTGTAAATCCACGTGGCATCGGAGTCACCTAGTGCAG”, the binding signal is 16500 fluorescence intensity (a.u.).
The figure for “TGTAGGAGAACATCCCCACCTGCCCCAACCATGTCGGCGCCGGAGTCACCTAGTGCAG” is 9260 fluorescence intensity (a.u.); for “AAACCATTCGCCCGATTTGATCCACATCACCACTTTGGTTCGGAGTCACCTAGTGCAG” it is 10400 fluorescence intensity (a.u.).
“CAATTCATCTATAACTAATTTAATAGTCAATTCATACAATCGGAGTCACCTAGTGCAG”: the binding signal is 44100 fluorescence intensity (a.u.).
“ATATCCGGTTTTACAGTTAGGGGATGATTTTGTAACTCGACGGAGTCACCTAGTGCAG”: the binding signal was 4600 fluorescence intensity (a.u.).
With “CGCATGCAGGTAATCCACTACTACGTACTCCTGTATGCATCGGAGTCACCTAGTGCAG”, the binding signal is 3510 fluorescence intensity (a.u.).
As to “CCACCGTCGCCGATTCCACCGCTGCCACGGACAACCCCGCCGGAGTCACCTAGTGCAG”, the binding signal was 3820 fluorescence intensity (a.u.).
The figure for “TAGAATGCCATGTCAGTGAAACCACCCATATATACTACCACGGAGTCACCTAGTGCAG” is 5710 fluorescence intensity (a.u.); for “TTACTTGTATATGAGCATGCATGCTTAGCTCAATCCCTTCCGGAGTCACCTAGTGCAG” it is 3860 fluorescence intensity (a.u.).
